Patent US20160346320A1, “SUBSTANCE FOR INHIBITING TISSUE CALCIFICATION, TISSUE FIBROSATION AND AGE-RELATED DISEASES” (Fresenius Kabi Deutschland GmbH, priority 2013, published 2016)

Test: blood chemistry: plasma concentrations in klotho mice
Type: in vivo
[1] = NH4Cl 0.28 M or acetazolamide 800 mg/l in drinking water

SMILES	Ca^++ concentration in plasma [1]	plasma concentration of 1.25 (OH)2D3 (calcitriol) [1]	plasma concentration of FGF23 (NH4Cl 0.28 M in drinking water)	plasma concentration of parathyroid hormone (NH4Cl 0.28 M in drinking water)
CC(=O)Nc1nnc(S(N)(=O)=O)s1 [acetazolamide]	remained slightly elevated	Neither the concentrations of 1.25 (OH)2D3 nor phosphate are affected		
Cl.N [ammonium chloride, Ammonium chloride]		did not lead to a significant change	did not lead to a significant change	did not lead to a significant change
